{
  "sequences": {"note": "Protein sequences, listed by entry. Tags and fused reporters are not part of them.", "UniProt A0JNW5": "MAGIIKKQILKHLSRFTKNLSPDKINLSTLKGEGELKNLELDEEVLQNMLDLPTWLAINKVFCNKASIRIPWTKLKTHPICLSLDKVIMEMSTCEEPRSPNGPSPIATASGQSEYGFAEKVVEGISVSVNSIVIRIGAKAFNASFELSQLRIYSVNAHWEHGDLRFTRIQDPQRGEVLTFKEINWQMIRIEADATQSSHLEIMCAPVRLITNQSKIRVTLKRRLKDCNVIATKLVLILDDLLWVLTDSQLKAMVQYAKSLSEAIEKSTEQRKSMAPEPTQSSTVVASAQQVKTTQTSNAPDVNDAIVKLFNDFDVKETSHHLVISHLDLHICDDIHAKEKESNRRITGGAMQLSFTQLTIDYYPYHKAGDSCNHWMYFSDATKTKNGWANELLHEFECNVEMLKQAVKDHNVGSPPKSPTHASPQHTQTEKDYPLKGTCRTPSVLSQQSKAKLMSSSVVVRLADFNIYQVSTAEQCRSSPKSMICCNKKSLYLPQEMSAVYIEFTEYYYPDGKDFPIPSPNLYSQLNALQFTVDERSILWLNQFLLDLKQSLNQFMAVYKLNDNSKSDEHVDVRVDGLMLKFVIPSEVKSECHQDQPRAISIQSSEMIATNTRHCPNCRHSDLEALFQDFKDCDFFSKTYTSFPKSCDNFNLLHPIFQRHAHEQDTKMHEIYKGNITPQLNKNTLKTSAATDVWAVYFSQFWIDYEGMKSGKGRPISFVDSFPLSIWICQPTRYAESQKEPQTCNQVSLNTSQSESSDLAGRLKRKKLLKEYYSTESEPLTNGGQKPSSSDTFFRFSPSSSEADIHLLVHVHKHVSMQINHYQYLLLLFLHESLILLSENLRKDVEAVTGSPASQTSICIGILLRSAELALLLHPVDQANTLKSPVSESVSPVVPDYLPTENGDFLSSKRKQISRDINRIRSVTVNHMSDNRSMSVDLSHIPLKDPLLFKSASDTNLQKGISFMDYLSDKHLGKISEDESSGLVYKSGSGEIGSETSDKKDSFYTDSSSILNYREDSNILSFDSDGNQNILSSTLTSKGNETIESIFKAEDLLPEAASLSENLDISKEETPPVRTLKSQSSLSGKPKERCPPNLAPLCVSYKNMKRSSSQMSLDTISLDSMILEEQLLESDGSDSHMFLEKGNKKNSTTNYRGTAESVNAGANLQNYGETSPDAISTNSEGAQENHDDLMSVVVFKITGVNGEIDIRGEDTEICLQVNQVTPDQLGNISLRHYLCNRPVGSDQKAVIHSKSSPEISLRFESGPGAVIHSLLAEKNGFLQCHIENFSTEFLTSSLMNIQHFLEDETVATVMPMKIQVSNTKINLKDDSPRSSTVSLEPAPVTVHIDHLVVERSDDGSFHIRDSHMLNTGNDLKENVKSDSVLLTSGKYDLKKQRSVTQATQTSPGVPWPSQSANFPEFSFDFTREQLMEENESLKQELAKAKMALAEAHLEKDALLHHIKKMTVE", "UniProt P63168": "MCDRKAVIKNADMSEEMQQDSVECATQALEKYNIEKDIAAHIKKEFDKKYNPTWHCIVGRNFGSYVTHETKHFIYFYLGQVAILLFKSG"},
  "source": "paper PMC9067936",
  "about": "“SHIP164 is a chorein motif lipid transfer protein that controls endosome–Golgi membrane traffic” (The Journal of Cell Biology, 2022)",
  "biological_target": "full-length, N-terminally FLAG-tagged human SHIP164 (3xFLAG-SHIP164) (human) (UniProt A0JNW5)",
  "test": "affinity purification with mass spectrometry; purified 3xFLAG-SHIP164 immobilized on anti-FLAG resin, incubated with Triton X-100 solubilized mouse brain lysate for 16 h at 4°C; washes in 25 mM Hepes pH 7.4, 150 mM NaCl; FLAG-tagged control protein in parallel; shotgun LC-MS/MS; only the target purified",
  "note": "Results are given in words; binding and its absence hold for the method and conditions named. In cells and extracts the contact can be indirect. These calls come from enrichment with a bait or labelling near it, and not all partners need be listed.",
  "data": [
    {"substance": "light chain 1 of cytoplasmic dynein (DYNLL1) (from UniProt P63168 1-89)", "values": [
      {"measurement": "binding", "result": "binds"}
    ]}
  ]
}
